Measured values reported in the supplement of paper PMC10849652.
This is one part of the list.

Chains of the proteins cited; added tags and fusions are not shown. Lines headed by an entry give the natural chain unless they say otherwise; changes in a name come on top.
UniProt Q96A49: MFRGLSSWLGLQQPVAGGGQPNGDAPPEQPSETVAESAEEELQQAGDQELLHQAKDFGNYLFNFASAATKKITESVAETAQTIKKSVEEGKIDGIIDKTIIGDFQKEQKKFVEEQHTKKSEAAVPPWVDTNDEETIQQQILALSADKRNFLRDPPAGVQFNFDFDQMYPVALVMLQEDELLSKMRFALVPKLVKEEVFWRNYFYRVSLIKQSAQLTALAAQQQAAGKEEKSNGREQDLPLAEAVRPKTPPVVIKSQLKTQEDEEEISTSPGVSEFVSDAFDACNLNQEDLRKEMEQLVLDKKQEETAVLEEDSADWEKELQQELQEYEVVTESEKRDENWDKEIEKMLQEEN
UniProt O14662: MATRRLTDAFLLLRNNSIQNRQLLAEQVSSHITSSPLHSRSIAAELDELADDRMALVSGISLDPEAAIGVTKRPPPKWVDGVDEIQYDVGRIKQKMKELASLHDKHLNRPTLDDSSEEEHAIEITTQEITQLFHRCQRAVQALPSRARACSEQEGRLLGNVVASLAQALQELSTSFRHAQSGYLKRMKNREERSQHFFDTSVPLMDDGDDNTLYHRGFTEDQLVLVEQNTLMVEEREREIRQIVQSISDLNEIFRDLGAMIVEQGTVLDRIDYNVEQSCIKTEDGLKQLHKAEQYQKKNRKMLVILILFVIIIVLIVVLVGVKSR
UniProt Q17R31: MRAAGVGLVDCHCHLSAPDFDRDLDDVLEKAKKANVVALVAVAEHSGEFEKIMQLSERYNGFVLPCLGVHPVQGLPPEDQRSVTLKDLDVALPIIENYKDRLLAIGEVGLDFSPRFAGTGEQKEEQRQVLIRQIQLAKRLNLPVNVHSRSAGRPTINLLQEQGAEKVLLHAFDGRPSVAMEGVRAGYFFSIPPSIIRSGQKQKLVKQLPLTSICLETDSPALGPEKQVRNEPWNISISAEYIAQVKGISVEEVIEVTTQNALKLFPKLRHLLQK
UniProt P26639: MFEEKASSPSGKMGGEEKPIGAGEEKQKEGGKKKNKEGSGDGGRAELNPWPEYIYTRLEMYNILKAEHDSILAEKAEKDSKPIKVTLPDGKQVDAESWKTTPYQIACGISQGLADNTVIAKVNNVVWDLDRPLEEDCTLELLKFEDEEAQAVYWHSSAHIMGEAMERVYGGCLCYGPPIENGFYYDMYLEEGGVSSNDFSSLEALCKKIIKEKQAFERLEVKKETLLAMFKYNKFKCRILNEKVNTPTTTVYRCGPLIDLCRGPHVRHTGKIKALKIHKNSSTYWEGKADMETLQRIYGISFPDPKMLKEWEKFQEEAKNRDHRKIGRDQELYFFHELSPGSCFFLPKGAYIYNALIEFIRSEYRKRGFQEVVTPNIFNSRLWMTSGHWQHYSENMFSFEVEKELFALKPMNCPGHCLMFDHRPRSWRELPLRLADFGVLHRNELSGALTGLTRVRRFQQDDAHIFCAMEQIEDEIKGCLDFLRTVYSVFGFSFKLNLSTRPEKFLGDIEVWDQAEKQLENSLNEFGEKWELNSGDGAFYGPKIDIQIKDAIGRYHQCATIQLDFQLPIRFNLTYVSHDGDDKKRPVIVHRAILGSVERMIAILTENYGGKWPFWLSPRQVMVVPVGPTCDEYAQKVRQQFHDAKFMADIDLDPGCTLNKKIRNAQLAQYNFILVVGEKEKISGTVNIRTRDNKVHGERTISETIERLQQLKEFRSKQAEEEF
UniProt O75683: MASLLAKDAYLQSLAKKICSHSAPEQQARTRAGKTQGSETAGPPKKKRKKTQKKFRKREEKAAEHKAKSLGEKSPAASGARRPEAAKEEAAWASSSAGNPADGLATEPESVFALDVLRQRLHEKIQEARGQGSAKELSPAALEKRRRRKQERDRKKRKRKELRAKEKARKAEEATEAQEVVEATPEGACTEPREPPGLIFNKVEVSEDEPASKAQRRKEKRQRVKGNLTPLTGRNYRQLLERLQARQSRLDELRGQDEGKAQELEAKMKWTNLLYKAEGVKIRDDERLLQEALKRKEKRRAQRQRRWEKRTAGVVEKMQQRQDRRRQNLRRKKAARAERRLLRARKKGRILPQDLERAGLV
UniProt Q13277: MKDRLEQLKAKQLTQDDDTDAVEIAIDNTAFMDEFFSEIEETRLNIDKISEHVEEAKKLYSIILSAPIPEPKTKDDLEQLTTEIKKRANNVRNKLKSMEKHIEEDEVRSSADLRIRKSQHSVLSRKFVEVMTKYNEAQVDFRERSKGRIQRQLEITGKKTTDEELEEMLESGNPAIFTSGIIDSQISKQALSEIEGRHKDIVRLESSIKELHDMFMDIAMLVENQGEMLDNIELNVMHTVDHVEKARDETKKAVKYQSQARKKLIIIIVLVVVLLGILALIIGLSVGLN
UniProt O43752: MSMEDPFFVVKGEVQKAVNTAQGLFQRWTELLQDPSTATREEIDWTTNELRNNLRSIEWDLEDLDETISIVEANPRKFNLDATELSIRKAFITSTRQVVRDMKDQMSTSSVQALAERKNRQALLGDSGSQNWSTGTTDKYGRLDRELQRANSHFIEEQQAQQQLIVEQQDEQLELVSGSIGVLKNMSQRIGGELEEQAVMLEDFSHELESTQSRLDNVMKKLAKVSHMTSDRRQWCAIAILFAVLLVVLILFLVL
UniProt P37837: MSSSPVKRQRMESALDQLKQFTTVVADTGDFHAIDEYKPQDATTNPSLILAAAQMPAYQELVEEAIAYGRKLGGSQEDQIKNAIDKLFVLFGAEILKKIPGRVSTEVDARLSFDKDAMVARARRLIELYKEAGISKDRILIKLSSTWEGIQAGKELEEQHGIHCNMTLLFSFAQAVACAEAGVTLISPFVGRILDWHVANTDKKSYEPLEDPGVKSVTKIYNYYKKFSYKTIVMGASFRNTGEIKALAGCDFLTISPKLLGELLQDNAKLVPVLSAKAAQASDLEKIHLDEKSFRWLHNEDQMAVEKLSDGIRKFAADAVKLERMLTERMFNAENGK
UniProt Q9UI15: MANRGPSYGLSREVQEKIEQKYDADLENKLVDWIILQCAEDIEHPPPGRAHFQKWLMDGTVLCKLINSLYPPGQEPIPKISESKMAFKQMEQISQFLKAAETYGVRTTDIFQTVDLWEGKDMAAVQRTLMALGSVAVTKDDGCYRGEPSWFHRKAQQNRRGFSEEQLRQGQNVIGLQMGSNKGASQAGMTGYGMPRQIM
UniProt P61956, whole entry, looked up: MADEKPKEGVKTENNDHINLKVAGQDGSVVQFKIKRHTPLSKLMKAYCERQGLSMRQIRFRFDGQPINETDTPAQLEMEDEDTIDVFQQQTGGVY
UniProt Q15633: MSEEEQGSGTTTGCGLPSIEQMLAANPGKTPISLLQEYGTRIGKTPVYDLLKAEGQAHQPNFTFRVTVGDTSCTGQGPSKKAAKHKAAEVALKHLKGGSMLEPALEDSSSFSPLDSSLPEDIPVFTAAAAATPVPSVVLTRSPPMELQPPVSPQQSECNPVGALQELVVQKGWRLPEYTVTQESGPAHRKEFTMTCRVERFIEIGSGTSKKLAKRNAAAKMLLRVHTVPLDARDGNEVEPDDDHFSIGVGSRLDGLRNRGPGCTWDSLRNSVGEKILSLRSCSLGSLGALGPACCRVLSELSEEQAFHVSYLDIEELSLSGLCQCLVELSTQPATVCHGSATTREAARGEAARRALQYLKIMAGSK
UniProt Q5VSL9: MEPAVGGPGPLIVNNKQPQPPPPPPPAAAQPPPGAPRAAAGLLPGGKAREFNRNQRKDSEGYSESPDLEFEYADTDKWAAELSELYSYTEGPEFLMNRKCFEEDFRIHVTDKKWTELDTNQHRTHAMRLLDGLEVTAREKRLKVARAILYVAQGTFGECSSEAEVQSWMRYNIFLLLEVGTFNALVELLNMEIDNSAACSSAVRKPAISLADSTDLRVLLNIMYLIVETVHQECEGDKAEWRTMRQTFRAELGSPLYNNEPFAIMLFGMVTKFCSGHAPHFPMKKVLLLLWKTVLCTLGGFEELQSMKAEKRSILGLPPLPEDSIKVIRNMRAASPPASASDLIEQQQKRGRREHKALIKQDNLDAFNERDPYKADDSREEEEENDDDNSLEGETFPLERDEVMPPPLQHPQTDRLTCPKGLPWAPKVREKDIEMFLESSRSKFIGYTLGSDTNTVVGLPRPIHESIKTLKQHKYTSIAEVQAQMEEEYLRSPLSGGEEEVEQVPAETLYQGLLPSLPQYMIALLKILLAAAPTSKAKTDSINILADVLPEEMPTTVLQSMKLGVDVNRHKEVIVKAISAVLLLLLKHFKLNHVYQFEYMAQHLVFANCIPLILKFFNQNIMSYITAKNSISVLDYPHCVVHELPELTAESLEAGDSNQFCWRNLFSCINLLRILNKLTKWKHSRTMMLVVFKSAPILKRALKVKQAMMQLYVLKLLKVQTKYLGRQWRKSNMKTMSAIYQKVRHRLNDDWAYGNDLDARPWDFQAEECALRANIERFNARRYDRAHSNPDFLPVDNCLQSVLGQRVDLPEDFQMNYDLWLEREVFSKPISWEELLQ
UniProt Q6P1X5, whole entry, looked up: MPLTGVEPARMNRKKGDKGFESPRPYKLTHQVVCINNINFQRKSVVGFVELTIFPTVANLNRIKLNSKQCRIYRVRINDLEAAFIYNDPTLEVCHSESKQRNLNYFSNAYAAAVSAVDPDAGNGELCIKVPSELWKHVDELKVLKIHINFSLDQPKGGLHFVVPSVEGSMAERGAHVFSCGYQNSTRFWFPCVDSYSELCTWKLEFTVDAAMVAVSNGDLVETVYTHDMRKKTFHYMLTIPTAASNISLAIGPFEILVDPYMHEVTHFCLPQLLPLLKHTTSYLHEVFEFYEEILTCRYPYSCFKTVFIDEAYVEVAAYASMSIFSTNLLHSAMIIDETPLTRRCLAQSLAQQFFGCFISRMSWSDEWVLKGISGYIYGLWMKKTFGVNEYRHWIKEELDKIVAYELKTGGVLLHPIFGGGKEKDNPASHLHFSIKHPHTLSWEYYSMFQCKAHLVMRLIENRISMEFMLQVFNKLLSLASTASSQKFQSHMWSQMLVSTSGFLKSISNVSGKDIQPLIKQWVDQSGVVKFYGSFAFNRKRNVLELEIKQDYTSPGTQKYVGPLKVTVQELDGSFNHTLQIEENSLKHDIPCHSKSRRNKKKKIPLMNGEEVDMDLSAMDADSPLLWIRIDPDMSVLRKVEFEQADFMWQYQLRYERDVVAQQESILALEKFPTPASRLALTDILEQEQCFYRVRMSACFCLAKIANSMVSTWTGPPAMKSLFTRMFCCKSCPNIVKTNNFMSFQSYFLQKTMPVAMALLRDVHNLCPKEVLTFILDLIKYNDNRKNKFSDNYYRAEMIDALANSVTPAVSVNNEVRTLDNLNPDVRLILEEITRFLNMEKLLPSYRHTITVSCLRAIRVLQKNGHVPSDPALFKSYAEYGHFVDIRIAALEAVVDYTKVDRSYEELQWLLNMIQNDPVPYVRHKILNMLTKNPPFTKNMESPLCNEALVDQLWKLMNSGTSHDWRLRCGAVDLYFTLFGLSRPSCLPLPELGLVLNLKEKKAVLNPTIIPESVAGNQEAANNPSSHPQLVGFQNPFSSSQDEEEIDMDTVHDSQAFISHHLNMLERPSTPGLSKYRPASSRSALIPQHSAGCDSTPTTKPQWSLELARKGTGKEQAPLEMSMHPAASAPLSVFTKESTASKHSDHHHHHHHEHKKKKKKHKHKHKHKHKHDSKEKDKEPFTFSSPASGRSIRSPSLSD
UniProt Q9NVG8: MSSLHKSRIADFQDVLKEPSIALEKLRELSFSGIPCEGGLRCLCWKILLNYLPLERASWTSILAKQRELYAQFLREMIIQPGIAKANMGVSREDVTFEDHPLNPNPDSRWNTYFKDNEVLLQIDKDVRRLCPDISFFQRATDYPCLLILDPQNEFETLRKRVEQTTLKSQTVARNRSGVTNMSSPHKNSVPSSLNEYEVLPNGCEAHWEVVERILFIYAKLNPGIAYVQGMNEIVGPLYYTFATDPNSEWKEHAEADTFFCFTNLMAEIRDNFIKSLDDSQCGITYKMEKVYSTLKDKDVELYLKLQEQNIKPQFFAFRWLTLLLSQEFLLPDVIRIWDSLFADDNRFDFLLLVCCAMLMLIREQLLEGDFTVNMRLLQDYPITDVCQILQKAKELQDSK
UniProt Q15544, whole entry, looked up: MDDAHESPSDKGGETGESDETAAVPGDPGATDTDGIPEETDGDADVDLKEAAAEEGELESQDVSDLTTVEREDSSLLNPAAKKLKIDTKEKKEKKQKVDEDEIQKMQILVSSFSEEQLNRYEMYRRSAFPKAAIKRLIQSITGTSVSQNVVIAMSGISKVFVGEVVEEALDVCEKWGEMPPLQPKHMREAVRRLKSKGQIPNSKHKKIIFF
UniProt Q8NBJ7: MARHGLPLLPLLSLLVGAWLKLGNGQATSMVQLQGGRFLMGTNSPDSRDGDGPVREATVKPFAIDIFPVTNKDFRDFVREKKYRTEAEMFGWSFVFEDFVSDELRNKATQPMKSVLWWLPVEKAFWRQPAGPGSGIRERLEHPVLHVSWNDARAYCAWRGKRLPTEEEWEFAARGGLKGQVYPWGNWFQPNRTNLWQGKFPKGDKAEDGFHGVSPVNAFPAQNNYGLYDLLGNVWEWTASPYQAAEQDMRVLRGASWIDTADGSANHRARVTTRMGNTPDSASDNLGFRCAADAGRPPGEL

Assays:
Test in all cases: log2 fold change, soluble protein after heating vs DMSO (PISA); higher = thermal stabilisation; K562 cells, 10 uM, 30 min; active = over 0.2 and 3.5 SD of the protein, either way, in both replicates (recomputed)
saracatinib = compound: CN1CCN(CCOc2cc(OC3CCOCC3)c3c(Nc4c(Cl)ccc5c4OCO5)ncnc3c2)CC1 [saracatinib]
Outline: (§1)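 K562 cells at 2×10^6 cells/mL were given 10 μM compound for 30 min. Aliquots then went through 3 min of heating across 48°C-58°C, were pooled, and were extracted in PBS with 0.5% NP-40 at 4°C, and the supernatant after 21,000xg for 90 min was quantified by TMTpro 16plex LC-MS/MS with channel sums equalised. Thermal stability relative to control samples, from duplicates, is given as log2 fold change.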

sotrastaurin = compound: CN1CCN(c2nc(C3=C(c4c[nH]c5ccccc45)C(=O)NC3=O)c3ccccc3n2)CC1 [sotrastaurin]
Outline: as §1

alvocidib = compound: CN1CC[C@H](c2c(O)cc(O)c3c(=O)cc(-c4ccccc4Cl)oc23)[C@H](O)C1 [alvocidib]
Outline: as §1

Tubastatin A = compound: CN1CCc2c(c3ccccc3n2Cc2ccc(C(=O)NO)cc2)C1 [Tubastatin A]
Outline: as §1

[1] = compound: CNC(=O)C1=CC=CC=C1NC2=NC(=NC=C2Cl)NC3=C(C=C(C=C3)N4CCOCC4)OC
Outline: as §1

defactinib = compound: CNC(=O)c1ccc(Nc2ncc(C(F)(F)F)c(NCc3nccnc3N(C)S(C)(=O)=O)n2)cc1 [defactinib]
Outline: as §1

rucaparib = compound: CNCc1ccc(-c2[nH]c3cc(F)cc4c3c2CCNC4=O)cc1 [rucaparib]
Outline: as §1

[2] = compound: CNc1nc(-c2ccc3c(N)n[nH]c3c2)cc(N2C[C@@H](C(=O)NC3CCCCC3)CC[C@H]2C)n1
Outline: as §1

encorafenib = compound: COC(=O)N[C@@H](C)CNc1nccc(-c2cn(C(C)C)nc2-c2cc(Cl)cc(NS(C)(=O)=O)c2F)n1 [encorafenib]
Outline: as §1

[3] = compound: COC(=O)[C@H](CCSC)NC(=O)C1=C(C=C(C=C1)NC[C@H](CS)N)C2=CC=CC=C2
Outline: as §1

Row | Target | log2 fold change (saracatinib) | log2 fold change (sotrastaurin) | log2 fold change (alvocidib) | log2 fold change (Tubastatin A) | log2 fold change [1] | log2 fold change (defactinib) | log2 fold change (rucaparib) | log2 fold change [2] | log2 fold change (encorafenib) | log2 fold change [3]
1 | SYAP1 (UniProt Q96A49) | inactive: -0.004 | inactive: -0.008 | inactive: 0.001 | inactive: -0.013 | inactive: 0.106 | inactive: -0.017 | inactive: -0.052 | inactive: -0.039 | inactive: 0.023 | inactive: 0.002
2 | SUMO3 isoform 2 (UniProt P55854) | inactive: 0.039 | inactive: 0.107 | inactive: 0.094 | inactive: -0.05 | inactive: -0.096 | inactive: 0.008 | inactive: 0.015 | inactive: -0.111 | inactive: -0.024 | inactive: 0.084
3 | SUB1 (UniProt P53999) | inactive: 0.013 | inactive: 0.027 | inactive: 0.006 | inactive: 0.003 | inactive: -0.019 | inactive: 0.001 | inactive: -0.034 | inactive: -0.02 | inactive: -0.054 | inactive: 0.035
4 | SYNJ1 (UniProt O43426) | inactive: 0.04 | inactive: 0.032 | inactive: 0.031 | inactive: -0.019 | inactive: -0.095 | inactive: -0.034 | inactive: 0.086 | inactive: -0.071 | inactive: 0.025 | inactive: -0.118
5 | STX16 isoform 2 (UniProt O14662) | inactive: -0.003 | inactive: -0.101 | inactive: -0.069 | inactive: 0.036 | inactive: 0.071 | inactive: -0.081 | inactive: 0.002 | inactive: 0.062 | inactive: 0.042 | inactive: -0.144
6 | TATDN3 isoform 3 (UniProt Q17R31) | inactive: 0.033 | inactive: 0.058 | inactive: 0.04 | inactive: 0.025 | inactive: 0 | inactive: 0.012 | inactive: 0.021 | inactive: -0.024 | inactive: -0.009 | inactive: 0.039
7 | TARS1 (UniProt P26639) | inactive: 0 | inactive: -0.006 | inactive: -0.067 | inactive: -0.028 | inactive: -0.005 | inactive: -0.032 | inactive: -0.003 | inactive: 0.052 | inactive: 0.023 | inactive: -0.008
8 | STRN3 (UniProt Q13033) | inactive: -0.011 | inactive: -0.014 | inactive: -0.024 | inactive: -0.01 | inactive: 0.014 | inactive: -0.04 | inactive: 0.007 | inactive: -0.003 | inactive: -0.002 | inactive: 0
9 | STX12 (UniProt Q86Y82) | inactive: 0.025 | inactive: 0.039 | inactive: 0.033 | inactive: -0.03 | inactive: -0.03 | inactive: -0.021 | inactive: -0.014 | inactive: -0.055 | inactive: 0.004 | inactive: 0.01
10 | SUGT1 (UniProt Q9Y2Z0) | inactive: 0.038 | inactive: -0.014 | inactive: -0.039 | inactive: -0.014 | inactive: 0.014 | inactive: -0.071 | inactive: -0.063 | inactive: -0.021 | inactive: 0.01 | inactive: -0.005
11 | SYF2 (UniProt O95926) | inactive: -0.028 | inactive: -0.041 | active: 0.383 | inactive: -0.016 | inactive: -0.086 | inactive: 0.286 | inactive: 0.029 | inactive: -0.14 | inactive: -0.062 | inactive: 0.038
12 | SURF6 (UniProt O75683) | inactive: -0.043 | inactive: -0.091 | inactive: 0.312 | inactive: 0.023 | inactive: -0.009 | inactive: 0.168 | inactive: 0.217 | inactive: 0.054 | inactive: 0.044 | inactive: 0.003
13 | STX3 (UniProt Q13277) | inactive: 0.081 | inactive: -0.001 | inactive: -0.046 | inactive: -0.033 | inactive: -0.015 | inactive: -0.051 | inactive: -0.004 | inactive: -0.005 | inactive: 0.06 | inactive: 0
14 | SYTL4 (UniProt Q96C24) | inactive: -0.01 | inactive: -0.173 | inactive: -0.022 | inactive: 0.122 | inactive: -0.03 |  |  | inactive: -0.028 |  | 
15 | SUPV3L1 (UniProt Q8IYB8) | inactive: 0.023 | inactive: -0.056 | inactive: 0.069 | inactive: -0.012 | inactive: -0.033 | inactive: -0.037 | inactive: 0.027 | inactive: -0.049 | inactive: -0.005 | inactive: 0.008
16 | SYNJ2BP-COX16, A0A087WYV9 | inactive: -0.021 | inactive: 0.047 | inactive: 0.001 | inactive: -0.031 | inactive: 0.02 | inactive: -0.052 | inactive: 0.021 | inactive: -0.02 | inactive: -0.046 | inactive: 0.048

Row | Target | log2 fold change (saracatinib) | log2 fold change (sotrastaurin) | log2 fold change (alvocidib) | log2 fold change (Tubastatin A) | log2 fold change [1] | log2 fold change (defactinib) | log2 fold change (rucaparib) | log2 fold change [2] | log2 fold change (encorafenib) | log2 fold change [3]
17 | STX6 (UniProt O43752) | inactive: 0.015 | inactive: -0.039 | inactive: 0.019 | inactive: 0.051 | inactive: 0 | inactive: -0.053 | inactive: 0.026 | inactive: 0.004 | inactive: 0.006 | inactive: 0.005
18 | TAF9B (UniProt Q9HBM6) | inactive: 0.12 | inactive: 0.161 | inactive: 0.077 | inactive: -0.123 | inactive: 0.032 | inactive: 0.002 |  | inactive: 0.135 |  | inactive: 0.017
19 | TACO1 (UniProt Q9BSH4) | inactive: 0.048 | inactive: -0.159 | inactive: -0.218 | inactive: 0.266 | inactive: -0.027 | inactive: -0.116 | inactive: -0.038 | inactive: 0.012 | inactive: 0.04 | inactive: 0.019
20 | TANGO2 isoform 4 (UniProt Q6ICL3) | inactive: -0.021 | inactive: 0.028 | inactive: -0.087 | inactive: 0.024 | inactive: -0.017 | inactive: -0.09 | inactive: -0.045 | inactive: -0.067 | inactive: -0.046 | inactive: 0.004
21 | TALDO1 (UniProt P37837) | inactive: -0.003 | inactive: 0.009 | inactive: -0.102 | inactive: -0.016 | inactive: -0.006 | inactive: -0.016 | inactive: -0.065 | inactive: 0.01 | inactive: 0.02 | inactive: 0.007
22 | STMN1 (UniProt P16949) | inactive: 0.011 | inactive: 0.06 | inactive: 0.002 | inactive: -0.005 | inactive: -0.046 | inactive: -0.004 | inactive: -0.085 | inactive: -0.016 | inactive: 0.011 | inactive: 0.037
23 | STXBP5L (UniProt Q9Y2K9) | inactive: 0.089 | inactive: 0 | inactive: -0.096 |  | inactive: 0.02 |  | inactive: -0.134 | inactive: -0.079 | inactive: -0.024 | 
24 | TAGLN3 (UniProt Q9UI15) | inactive: -0.105 | inactive: -0.015 | inactive: 0.034 | inactive: -0.052 |  | inactive: -0.002 |  | inactive: 0 |  | inactive: -0.096
25 | SUMO2 (UniProt P61956) | inactive: 0.153 | inactive: 0.114 | inactive: 0.076 | inactive: -0.118 | inactive: -0.076 | inactive: 0.012 | inactive: -0.034 | inactive: -0.142 | inactive: -0.008 | inactive: 0.145
26 | TARBP2 (UniProt Q15633) | inactive: -0.151 | inactive: -0.197 | inactive: 0.084 | inactive: 0.142 | inactive: 0.005 | inactive: 0.087 | inactive: 0.206 | inactive: -0.015 | inactive: 0.055 | inactive: 0.017
27 | STRIP1 (UniProt Q5VSL9) | inactive: 0.03 | inactive: -0.025 | inactive: 0.028 | inactive: -0.011 | inactive: 0.018 | inactive: -0.124 | inactive: 0.002 | inactive: -0.059 | inactive: 0.137 | inactive: -0.067
28 | TAF2 (UniProt Q6P1X5) | inactive: -0.189 | inactive: 0.002 | inactive: 0.113 | inactive: -0.179 |  | inactive: 0.102 | inactive: 0.105 | inactive: 0.061 | inactive: -0.009 | inactive: 0.064
29 | TBC1D13 (UniProt Q9NVG8) | inactive: 0.013 | inactive: 0.065 | inactive: -0.061 | inactive: -0.058 | inactive: -0.029 | inactive: -0.035 | inactive: -0.021 | inactive: -0.045 | inactive: -0.008 | inactive: -0.004
30 | TAF11 (UniProt Q15544) | inactive: 0.089 | inactive: 0.068 | inactive: 0.067 | inactive: 0 | inactive: -0.014 |  |  | inactive: -0.11 |  | 
31 | SUMF2 (UniProt Q8NBJ7) | inactive: -0.033 | inactive: -0.042 | inactive: -0.058 | inactive: -0.012 | inactive: 0.025 | inactive: -0.033 | inactive: 0.059 | inactive: -0.068 | inactive: 0.037 | inactive: 0.023

An excerpt of these results, tab-delimited.
Row	Target	log2 fold change (saracatinib)	log2 fold change (sotrastaurin)	log2 fold change (alvocidib)	log2 fold change (Tubastatin A)	log2 fold change [1]	log2 fold change (defactinib)	log2 fold change (rucaparib)	log2 fold change [2]	log2 fold change (encorafenib)	log2 fold change [3]
25	SUMO2 (UniProt P61956)	inactive: 0.153	inactive: 0.114	inactive: 0.076	inactive: -0.118	inactive: -0.076	inactive: 0.012	inactive: -0.034	inactive: -0.142	inactive: -0.008	inactive: 0.145
26	TARBP2 (UniProt Q15633)	inactive: -0.151	inactive: -0.197	inactive: 0.084	inactive: 0.142	inactive: 0.005	inactive: 0.087	inactive: 0.206	inactive: -0.015	inactive: 0.055	inactive: 0.017
27	STRIP1 (UniProt Q5VSL9)	inactive: 0.03	inactive: -0.025	inactive: 0.028	inactive: -0.011	inactive: 0.018	inactive: -0.124	inactive: 0.002	inactive: -0.059	inactive: 0.137	inactive: -0.067
